# Laboratory results as given in PubChem BioAssay AID1347423 (Functional Genomics Laboratory (NCATS/FGL), 2020).
# Among all 52,000 sequences or so, about 210 (0.4%) were called active.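 How the source made its calls: active means gene whose silencing raises cell survival under the drug, median off-target-corrected z-score across its silencing RNAs 2 or more; inactive means the rest.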 The list shows a part of the results.
# Assay: Resistance to Poly (ADP-Ribose) Polymerase inhibitor: Gene Identification via Genome-wide siRNA Screen
# Conditions: mouse BRCA2 R2336H ES cells, olaparib, CellTiter-Glo viability; active compounds read high
# Method in brief: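 Genome-wide siRNA screen (3 siRNAs/gene, 20 nM) in mouse ES cells carrying hypomorphic BRCA2 R2336H; olaparib 500 nM added 48 h post-transfection, CellTiter-Glo viability 72 h later. Normalized to plate-median negative control; MAD z-scores, gene median, seed-adjusted.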
row,Sequence,z-score
1,GGUGAUGAAGAUUUCAAAGTT against Tcf7,inactive: 1.36
2,GGAUGUGCUCUGUGAAUGCTT against Pgf,inactive: -1
3,CCGAGAGUUAACCUCAAAATT against 4931440P22Rik,inactive: 0.912
4,GGGAUUAAUACAGCAAUUUTT against Ddx24,inactive: -2.06
5,GGGUAUGGUUCUGUUGGCATT against Pxmp4,inactive: 0.275
6,GGCUGUGUAUGAAACAUUUTT against E430021N18Rik,inactive: 0.949
7,GGGCAUGAUUUUCACUUCCTT against Gpr150,inactive: 0.284
8,GCUGCAUUGUGGAUUAUAUTT against Thumpd1,inactive: -0.56
9,GGAGAUAUGGAAGAAGACATT against Pja2,inactive: -0.828
10,GGGACACUGGGAAGAAACATT against 2810021J22Rik,inactive: -2.45
11,GGAGGGAAUAUGCAAAUAGTT against E330017A01Rik,inactive: 0.773
12,CCGAAUGACGGUUGAAUAUTT against 9430034D17Rik,inactive: -2.39
13,CGAUAAGGGCUGUUUAUAUTT against Rnasel,inactive: 0.92
14,GGGAAAAAUGGACUAGCAUTT against Elys,inactive: -1.68
15,GGUCUUCGAUGUCUUGUAGTT against Fbxl11,inactive: 0.0439
16,GGUUACUCUCCAGAUGAAATT against Srpx2,inactive: 1.27
17,GGGAUGAUUUUGAGAUUUUTT against Dm15,inactive: 0.206
18,GGUGACUCGGCUAUUUUCCTT against DXImx40e,inactive: 2.21
19,GGUCAUUCUGGCUUAGUAATT against Hira,inactive: -1.7
20,GGACAUCAGAUGAGAAUGUTT against Rab19,inactive: -1.78
21,GGCUAUUCCUUUGUGACCATT against Actg2,inactive: -0.271
22,GGAUCUGGACUUAAUGCUCTT against Tcfeb,inactive: 1.46
23,GGUUGUCAAAGUCAAACCATT against H1f0,inactive: -0.503

row,Sequence,z-score
1,GCAGUAUGAGGUAAAUUAUTT against 9430069J07Rik,inactive: 0.127
2,CGAAGCCUAUCGAAAAGUCTT against Adcyap1,inactive: -1.35
3,GGGUACCUAGGGUUAUGAATT against Hps6,inactive: 0.234
4,GGUUUGAGAAUUUGAAGGUTT against Gtlf3a,inactive: 0.33
5,CCUAUAACUCCAAGGAUACTT against MGC58608,inactive: -0.461
6,GGCUUUAUAAUGUUCUGUUTT against 1810009B06Rik,inactive: -2.16
7,CCUCAAUUGCAUGUGACCUTT against Itgb1bp1,inactive: -0.642
8,GAAUCACAGGACUUCUGCATT against Bcl2,inactive: 0.797
9,GCAAGAAGUUCCUAUCAUCTT against Polr2b,inactive: -2.2
10,GGAACAUGUCCAUUAUCACTT against V1re4,inactive: 1.5
11,GGAGAAAUUUAAGAAGAGUTT against Xrcc5,inactive: 1.05
12,GGUUGAAAUUCGGAAAAAATT against Mnat1,inactive: 0.674
13,GCUCCACAUGAGAUUCUCATT against Sec14l1,inactive: -0.222
14,GGCACCUUUCAACGUAACCTT against Ntn3,inactive: 0.321
15,GCAAACUUUUUCUGUAAAGTT against Apg4a,inactive: -0.649
16,GCAGCGAGUACUAUAUCCGTT against BC059845,inactive: 0.321
17,GCAAUGGACCUGGUACAAGTT against Myg1,inactive: -0.258
18,GUAACUCGCUUCUUGGUGGTT against LOC545558,inactive: 0.19
19,GGUCACAACUUUUGAGCACTT against Gna11,inactive: 0.648
20,GCUGAUUGAGCAUCCGAUGTT against Ggt1,inactive: 1.79
21,GCUUAUGAUUCCAAGGCAGTT against Serpina6,inactive: -0.0529
22,GAAAGAUGGAGACACCCUCTT against 2010319C14Rik,inactive: -1.49
23,GCUUUACUCUAAUUGAUGUTT against 2310010I16Rik,inactive: -0.126

# No new results follow: an excerpt of the list.
row,Sequence,z-score
12,GGUUGAAAUUCGGAAAAAATT against Mnat1,inactive: 0.674
13,GCUCCACAUGAGAUUCUCATT against Sec14l1,inactive: -0.222
14,GGCACCUUUCAACGUAACCTT against Ntn3,inactive: 0.321
15,GCAAACUUUUUCUGUAAAGTT against Apg4a,inactive: -0.649

# Later entries:

row,Sequence,z-score
1,GGGUGUGAUCCAAGCUAUCTT against Rtn4,inactive: 0.173
2,GAAGAGAACGCGUUUUUGGTT against Defcr5,inactive: 1.31
3,GGUGGAACCUCUGAGAAAATT against 4930562D19Rik,inactive: -0.499
4,GGUCAAAGUGUGUUAAGUUTT against 2700094F01Rik,inactive: -0.383
5,GGUUCGCCCUUGGAAAUGGTT against Dmap1,inactive: -0.757
6,CCACCCUGAUUUAAGAAGGTT against Ndufs3,inactive: -0.216
7,GGGUCCAUGAACUCAAGAUTT against BC023814,inactive: -0.438
8,GGAAGGUCAGAACAACGACTT against Tpcn1,inactive: -0.502
9,CCAUCAAAGUCAUCGACGGTT against Birc6,inactive: -1.07
10,GGAAUACCUCUACUGACAGTT against Rage,inactive: 0.757
11,GGAACUGUAUGAAAUGCUGTT against Pdgfb,inactive: -0.774
12,CCAAGUAUAGCUCACAUAATT against 9130214H05Rik,inactive: -0.577
13,CGUGGAGUGUUAAAGAAUUTT against Il23r,inactive: 0.779
14,GGUCUUCAGAUAAUCUUCCTT against Dbccr1,inactive: -0.121
15,GGCCCAUCUAAGCUACAGATT against Rab40b,inactive: 1.01
16,GGAAACUUCUGCACUUGGGTT against 4930474M22Rik,inactive: 1.02
17,CCGGUGGUAAUUUCACCCUTT against C2,inactive: 0.15
18,GGAACUCAUUCUAUUGCACTT against A630014H24Rik,inactive: 0.188
19,CCUCAGAGUCCCUAGAAAATT against Gm93,inactive: 0.712
20,GCUAUUUUCAGCGAGCUGUTT against Lmo3,inactive: -0.468
21,GGCAUUGAUUGAUUCCUGUTT against Dnpep,inactive: -0.356
